The assay concerns the target T1, FLAG-BirA*-LUZP1 (human) (UniProt Q86V48).
T1 sequence: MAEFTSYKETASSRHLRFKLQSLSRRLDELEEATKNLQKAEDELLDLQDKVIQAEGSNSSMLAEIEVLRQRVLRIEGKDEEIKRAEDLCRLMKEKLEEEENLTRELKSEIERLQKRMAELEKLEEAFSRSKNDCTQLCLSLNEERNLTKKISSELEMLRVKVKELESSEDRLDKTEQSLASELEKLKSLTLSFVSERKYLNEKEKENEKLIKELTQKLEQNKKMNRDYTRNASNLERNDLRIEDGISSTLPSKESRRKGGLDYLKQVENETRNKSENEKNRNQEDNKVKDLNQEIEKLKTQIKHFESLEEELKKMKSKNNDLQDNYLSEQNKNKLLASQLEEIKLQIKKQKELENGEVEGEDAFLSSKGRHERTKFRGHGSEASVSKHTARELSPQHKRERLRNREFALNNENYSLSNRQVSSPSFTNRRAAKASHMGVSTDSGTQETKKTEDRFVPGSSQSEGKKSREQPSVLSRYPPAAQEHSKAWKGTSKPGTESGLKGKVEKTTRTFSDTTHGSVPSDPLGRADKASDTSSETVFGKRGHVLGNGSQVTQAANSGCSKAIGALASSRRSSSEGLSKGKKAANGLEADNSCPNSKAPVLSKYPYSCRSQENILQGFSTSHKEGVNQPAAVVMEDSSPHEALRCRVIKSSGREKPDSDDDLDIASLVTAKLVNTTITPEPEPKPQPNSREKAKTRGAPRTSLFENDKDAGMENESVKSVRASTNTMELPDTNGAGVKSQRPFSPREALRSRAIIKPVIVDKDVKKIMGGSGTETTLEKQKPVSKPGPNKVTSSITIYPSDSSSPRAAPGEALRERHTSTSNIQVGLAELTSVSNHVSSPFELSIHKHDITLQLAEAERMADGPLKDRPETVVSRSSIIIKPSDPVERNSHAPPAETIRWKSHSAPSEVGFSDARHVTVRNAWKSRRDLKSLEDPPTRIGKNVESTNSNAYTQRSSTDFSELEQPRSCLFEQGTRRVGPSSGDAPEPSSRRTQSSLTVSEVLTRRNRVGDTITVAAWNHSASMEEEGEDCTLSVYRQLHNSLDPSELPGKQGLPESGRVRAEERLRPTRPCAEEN
The experiment in a line: proximity labelling; BioID: FLAG-BirA*-LUZP1 in Flp-In T-REx HEK293, tetracycline and 50 µM biotin for 24 h, cycling cells and cells serum starved for 48 h before biotin; streptavidin Sepharose capture, MS, SAINT against FLAG-BirA* alone, BFDR ≤0.01.

Amino acid sequences for entries named in this document (tags omitted).
UniProt Q9UHB6: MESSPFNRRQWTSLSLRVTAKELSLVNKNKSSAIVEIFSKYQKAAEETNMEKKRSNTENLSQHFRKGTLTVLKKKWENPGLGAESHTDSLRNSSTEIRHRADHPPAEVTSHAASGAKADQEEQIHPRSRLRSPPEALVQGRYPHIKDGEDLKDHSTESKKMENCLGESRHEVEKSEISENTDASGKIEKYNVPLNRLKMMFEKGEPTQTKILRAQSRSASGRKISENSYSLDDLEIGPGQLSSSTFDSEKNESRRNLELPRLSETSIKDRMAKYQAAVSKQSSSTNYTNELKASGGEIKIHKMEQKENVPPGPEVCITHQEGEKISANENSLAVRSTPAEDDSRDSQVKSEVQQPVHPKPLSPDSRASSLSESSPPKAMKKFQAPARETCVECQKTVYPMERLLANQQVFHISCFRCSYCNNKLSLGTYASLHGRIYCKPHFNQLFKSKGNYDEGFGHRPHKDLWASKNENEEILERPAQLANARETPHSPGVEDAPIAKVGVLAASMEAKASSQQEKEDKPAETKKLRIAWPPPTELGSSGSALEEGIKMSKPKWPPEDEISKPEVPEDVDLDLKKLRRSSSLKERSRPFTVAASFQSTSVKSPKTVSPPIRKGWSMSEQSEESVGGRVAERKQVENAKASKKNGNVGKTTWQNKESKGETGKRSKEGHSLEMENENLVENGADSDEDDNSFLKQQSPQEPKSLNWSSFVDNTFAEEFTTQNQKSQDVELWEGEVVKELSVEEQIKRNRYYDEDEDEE
UniProt P08590: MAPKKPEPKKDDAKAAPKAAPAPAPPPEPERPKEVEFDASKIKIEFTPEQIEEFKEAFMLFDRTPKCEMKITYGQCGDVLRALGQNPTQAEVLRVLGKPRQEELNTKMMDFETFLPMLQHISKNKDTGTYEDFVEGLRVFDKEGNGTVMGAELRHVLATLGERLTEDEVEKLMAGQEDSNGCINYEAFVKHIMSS
UniProt P60660: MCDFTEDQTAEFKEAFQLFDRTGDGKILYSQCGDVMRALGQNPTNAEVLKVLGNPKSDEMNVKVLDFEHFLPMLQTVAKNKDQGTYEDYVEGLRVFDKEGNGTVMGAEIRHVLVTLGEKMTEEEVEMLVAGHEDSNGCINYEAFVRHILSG
UniProt P14649: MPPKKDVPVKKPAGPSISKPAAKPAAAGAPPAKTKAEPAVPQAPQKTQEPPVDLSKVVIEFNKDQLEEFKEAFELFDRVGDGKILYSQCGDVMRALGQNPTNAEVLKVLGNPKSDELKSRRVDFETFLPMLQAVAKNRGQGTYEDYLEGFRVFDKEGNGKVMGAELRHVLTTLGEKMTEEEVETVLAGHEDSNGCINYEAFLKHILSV
UniProt O14950: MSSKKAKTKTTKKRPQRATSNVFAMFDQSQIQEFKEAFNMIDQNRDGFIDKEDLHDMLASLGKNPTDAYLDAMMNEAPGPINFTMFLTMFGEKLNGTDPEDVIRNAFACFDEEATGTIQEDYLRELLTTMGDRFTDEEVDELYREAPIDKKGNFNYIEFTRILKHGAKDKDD
UniProt Q15154: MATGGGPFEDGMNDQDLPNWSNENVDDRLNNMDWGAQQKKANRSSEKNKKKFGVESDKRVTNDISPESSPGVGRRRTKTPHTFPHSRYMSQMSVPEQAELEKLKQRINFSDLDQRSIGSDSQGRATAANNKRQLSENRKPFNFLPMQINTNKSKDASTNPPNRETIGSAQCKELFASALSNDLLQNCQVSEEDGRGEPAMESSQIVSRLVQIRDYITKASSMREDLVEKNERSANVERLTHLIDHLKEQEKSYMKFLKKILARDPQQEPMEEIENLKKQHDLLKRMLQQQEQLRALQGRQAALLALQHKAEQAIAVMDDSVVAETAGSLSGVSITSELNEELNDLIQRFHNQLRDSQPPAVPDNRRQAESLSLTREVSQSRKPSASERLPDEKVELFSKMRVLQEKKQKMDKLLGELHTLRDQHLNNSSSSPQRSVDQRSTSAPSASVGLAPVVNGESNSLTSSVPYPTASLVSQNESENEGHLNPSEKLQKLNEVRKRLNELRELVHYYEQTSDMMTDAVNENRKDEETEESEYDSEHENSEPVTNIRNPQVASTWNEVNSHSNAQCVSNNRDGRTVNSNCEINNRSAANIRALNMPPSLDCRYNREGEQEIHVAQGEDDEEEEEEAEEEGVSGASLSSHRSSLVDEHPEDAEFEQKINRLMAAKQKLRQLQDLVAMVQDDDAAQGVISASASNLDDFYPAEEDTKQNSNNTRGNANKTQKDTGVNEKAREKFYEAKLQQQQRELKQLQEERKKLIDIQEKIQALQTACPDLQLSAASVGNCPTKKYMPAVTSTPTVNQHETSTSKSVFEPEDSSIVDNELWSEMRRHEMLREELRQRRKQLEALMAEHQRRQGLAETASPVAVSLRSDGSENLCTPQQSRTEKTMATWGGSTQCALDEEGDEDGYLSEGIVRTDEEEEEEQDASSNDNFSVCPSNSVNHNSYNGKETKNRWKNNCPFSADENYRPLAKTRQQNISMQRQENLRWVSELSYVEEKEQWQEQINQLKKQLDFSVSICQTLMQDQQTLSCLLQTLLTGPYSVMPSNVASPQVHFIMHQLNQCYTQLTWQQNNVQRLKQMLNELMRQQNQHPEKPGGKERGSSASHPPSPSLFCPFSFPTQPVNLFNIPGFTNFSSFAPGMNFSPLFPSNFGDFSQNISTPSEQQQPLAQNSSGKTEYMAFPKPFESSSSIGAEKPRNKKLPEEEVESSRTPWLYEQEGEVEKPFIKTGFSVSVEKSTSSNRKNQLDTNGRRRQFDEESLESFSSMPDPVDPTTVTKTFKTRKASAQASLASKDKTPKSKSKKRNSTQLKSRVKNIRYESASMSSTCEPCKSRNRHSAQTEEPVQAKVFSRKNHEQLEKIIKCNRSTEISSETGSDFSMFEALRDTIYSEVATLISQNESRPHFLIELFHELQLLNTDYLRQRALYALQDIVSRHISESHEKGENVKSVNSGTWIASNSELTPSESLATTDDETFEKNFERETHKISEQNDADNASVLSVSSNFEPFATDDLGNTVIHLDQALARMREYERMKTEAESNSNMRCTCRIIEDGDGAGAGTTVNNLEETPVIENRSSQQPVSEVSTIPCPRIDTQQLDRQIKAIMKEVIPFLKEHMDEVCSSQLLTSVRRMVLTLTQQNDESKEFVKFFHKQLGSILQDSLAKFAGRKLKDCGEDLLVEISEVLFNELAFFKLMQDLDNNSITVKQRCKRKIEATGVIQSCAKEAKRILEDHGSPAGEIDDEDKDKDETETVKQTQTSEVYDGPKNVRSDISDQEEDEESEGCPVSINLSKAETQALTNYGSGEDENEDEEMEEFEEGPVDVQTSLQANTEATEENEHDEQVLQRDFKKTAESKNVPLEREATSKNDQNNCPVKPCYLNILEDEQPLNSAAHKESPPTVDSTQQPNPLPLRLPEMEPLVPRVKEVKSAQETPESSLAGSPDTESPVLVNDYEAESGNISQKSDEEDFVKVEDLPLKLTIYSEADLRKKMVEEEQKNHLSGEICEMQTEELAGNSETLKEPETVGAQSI
UniProt Q07157: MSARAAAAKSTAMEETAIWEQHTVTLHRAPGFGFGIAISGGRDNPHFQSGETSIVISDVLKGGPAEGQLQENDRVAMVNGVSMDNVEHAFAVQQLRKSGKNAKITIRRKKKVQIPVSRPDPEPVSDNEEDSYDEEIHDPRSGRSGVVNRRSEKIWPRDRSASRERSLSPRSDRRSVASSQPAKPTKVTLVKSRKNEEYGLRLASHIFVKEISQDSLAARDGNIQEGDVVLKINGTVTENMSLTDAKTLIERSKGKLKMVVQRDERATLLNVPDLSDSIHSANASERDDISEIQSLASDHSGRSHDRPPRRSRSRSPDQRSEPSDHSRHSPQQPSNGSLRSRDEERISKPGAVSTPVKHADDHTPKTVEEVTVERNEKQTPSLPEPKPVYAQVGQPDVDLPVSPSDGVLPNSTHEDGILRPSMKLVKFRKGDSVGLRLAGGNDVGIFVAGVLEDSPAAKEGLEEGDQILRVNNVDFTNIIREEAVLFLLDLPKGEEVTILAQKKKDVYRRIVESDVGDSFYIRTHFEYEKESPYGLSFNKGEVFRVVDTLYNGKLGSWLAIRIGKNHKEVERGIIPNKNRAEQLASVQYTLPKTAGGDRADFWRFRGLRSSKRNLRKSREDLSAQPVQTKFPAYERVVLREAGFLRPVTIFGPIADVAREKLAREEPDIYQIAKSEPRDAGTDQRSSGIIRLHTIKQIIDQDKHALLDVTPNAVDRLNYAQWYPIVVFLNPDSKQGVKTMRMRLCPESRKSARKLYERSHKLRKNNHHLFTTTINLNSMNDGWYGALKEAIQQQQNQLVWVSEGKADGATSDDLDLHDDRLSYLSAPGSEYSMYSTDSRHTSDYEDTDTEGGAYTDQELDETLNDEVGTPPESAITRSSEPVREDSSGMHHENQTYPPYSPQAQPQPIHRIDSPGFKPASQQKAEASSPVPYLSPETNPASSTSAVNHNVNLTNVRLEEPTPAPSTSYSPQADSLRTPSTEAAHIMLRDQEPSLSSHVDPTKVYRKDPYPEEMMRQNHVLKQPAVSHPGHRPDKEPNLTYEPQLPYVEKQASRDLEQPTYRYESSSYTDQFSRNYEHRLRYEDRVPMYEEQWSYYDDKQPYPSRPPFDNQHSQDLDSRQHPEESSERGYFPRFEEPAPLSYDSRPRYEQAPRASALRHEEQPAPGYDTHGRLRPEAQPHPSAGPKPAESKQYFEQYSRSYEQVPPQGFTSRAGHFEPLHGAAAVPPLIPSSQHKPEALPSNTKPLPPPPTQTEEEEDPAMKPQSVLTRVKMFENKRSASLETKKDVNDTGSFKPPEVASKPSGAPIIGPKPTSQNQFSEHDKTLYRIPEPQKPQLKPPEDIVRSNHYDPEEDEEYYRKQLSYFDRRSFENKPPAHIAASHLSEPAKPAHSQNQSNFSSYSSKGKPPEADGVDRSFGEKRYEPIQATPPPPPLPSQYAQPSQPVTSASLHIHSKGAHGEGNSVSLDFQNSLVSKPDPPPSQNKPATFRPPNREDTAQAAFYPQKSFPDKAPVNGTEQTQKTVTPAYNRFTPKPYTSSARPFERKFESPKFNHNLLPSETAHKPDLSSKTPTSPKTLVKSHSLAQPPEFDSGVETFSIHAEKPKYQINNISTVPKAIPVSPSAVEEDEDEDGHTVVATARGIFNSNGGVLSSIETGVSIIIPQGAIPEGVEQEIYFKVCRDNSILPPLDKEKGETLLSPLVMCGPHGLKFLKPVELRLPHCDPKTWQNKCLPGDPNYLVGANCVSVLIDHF

These are yes or no findings as the source states them, for the method shown. Binding seen in cells or lysates may run through a third protein. Here binding means that the protein was enriched with, or labelled near, the bait; the list need not be complete. Sequences can lack the tags named with a protein.

For “EPLIN/LIMA1 (endogenous, HEK293) (from UniProt Q9UHB6 1-759)”, the binding result was “binds”. The result for FLNA (from UniProt P21333 1-2647) reads “binds”. In the case of FLNB (from UniProt O75369 1-2602), the binding entry was “binds”. The result for MYL3 (from UniProt P08590 1-195) reads “binds”; that for MYL6 (from UniProt P60660 1-151), “binds”.

MYL6B (from UniProt P14649 1-208): the binding result is “binds”. In the case of MYL12B (from UniProt O14950 1-172), the binding entry is on record as “binds”. In the case of PCM1 (from UniProt Q15154 1-2024), the binding entry is given as “binds”. For TJP1 (from UniProt Q07157 1-1748), the binding entry is “binds”.

B1: SORBS1/CAP (protein, UniProt Q9BX66 1-1292)
chain: MSSECDGGSKAVMNGLAPGSNGQDKATADPLRARSISAVKIIPVKTVKNASGLVLPTDMDLTKICTGKGAVTLRASSSYRETPSSSPASPQETRQHESKPGLEPEPSSADEWRLSSSADANGNAQPSSLAAKGYRSVHPNLPSDKSQDATSSSAAQPEVIVVPLYLVNTDRGQEGTARPPTPLGPLGCVPTIPATASAASPLTFPTLDDFIPPHLQRWPHHSQPARASGSFAPISQTPPSFSPPPPLVPPAPEDLRRVSEPDLTGAVSSTDSSPLLNEVSSSLIGTDSQAFPSVSKPSSAYPSTTIVNPTIVLLQHNREQQKRLSSLSDPVSERRVGEQDSAPTQEKPTSPGKAIEKRAKDDSRRVVKSTQDLSDVSMDEVGIPLRNTERSKDWYKTMFKQIHKLNRDTPEENPYFPTYKFPELPEIQQTSEEDNPYTPTYQFPASTPSPKSEDDDSDLYSPRYSFSEDTKSPLSVPRSKSEMSYIDGEKVVKRSATLPLPARSSSLKSSSERNDWEPPDKKVDTRKYRAEPKSIYEYQPGKSSVLTNEKMSRDISPEEIDLKNEPWYKFFSELEFGKPPPKKIWDYTPGDCSILPREDRKTNLDKDLSLCQTELEADLEKMETLNKAPSANVPQSSAISPTPEISSETPGYIYSSNFHAVKRESDGAPGDLTSLENERQIYKSVLEGGDIPLQGLSGLKRPSSSASTKDSESPRHFIPADYLESTEEFIRRRHDDKEKLLADQRRLKREQEEADIAARRHTGVIPTHHQFITNERFGDLLNIDDTAKRKSGSEMRPARAKFDFKAQTLKELPLQKGDIVYIYKQIDQNWYEGEHHGRVGIFPRTYIELLPPAEKAQPKKLTPVQVLEYGEAIAKFNFNGDTQVEMSFRKGERITLLRQVDENWYEGRIPGTSRQGIFPITYVDVIKRPLVKNPVDYMDLPFSSSPSRSATASPQFSSHSKLITPAPSSLPHSRRALSPEMHAVTSEWISLTVGVPGRRSLALTPPLPPLPEASIYNTDHLALSPRASPSLSLSLPHLSWSDRPTPRSVASPLALPSPHKTYSLAPTSQASLHMNGDGGVHTPSSGIHQDSFLQLPLGSSDSVISQLSDAFSSQSKRQPWREESGQYERKAERGAGERGPGGPKISKKSCLKPSDVVRCLSTEQRLSDLNTPEESRPGKPLGSAFPGSEAEQTERHRGGEQAGRKAARRGGSQQPQAQQRRVTPDRSQTSQDLFSYQALYSYIPQNDDELELRDGDIVDVMEKCDDGWFVGTSRRTKQFGTFPGNYVKPLYL
On to B1, for which the binding result was “binds”.

B2: SEPT2 (protein, UniProt Q15019 1-361)
chain: MSKQQPTQFINPETPGYVGFANLPNQVHRKSVKKGFEFTLMVVGESGLGKSTLINSLFLTDLYPERVIPGAAEKIERTVQIEASTVEIEERGVKLRLTVVDTPGYGDAINCRDCFKTIISYIDEQFERYLHDESGLNRRHIIDNRVHCCFYFISPFGHGLKPLDVAFMKAIHNKVNIVPVIAKADTLTLKERERLKKRILDEIEEHNIKIYHLPDAESDEDEDFKEQTRLLKASIPFSVVGSNQLIEAKGKKVRGRLYPWGVVEVENPEHNDFLKLRTMLITHMQDLQEVTQDLHYENFRSERLKRGGRKVENEDMNKDQILLEKEAELRRMQEMIARMQAQMQMQMQGGDGDGGALGHHV
Consider B2, for which the binding result is recorded as “binds”.

B3: MYL12A (protein, UniProt P19105 1-171)
chain: MSSKRTKTKTKKRPQRATSNVFAMFDQSQIQEFKEAFNMIDQNRDGFIDKEDLHDMLASLGKNPTDEYLDAMMNEAPGPINFTMFLTMFGEKLNGTDPEDVIRNAFACFDEEATGTIQEDYLRELLTTMGDRFTDEEVDELYREAPIDKKGNFNYIEFTRILKHGAKDKDD
In the case of B3, the binding result was “binds”.

For the origin of these results see paper PMC7337498.
